# In publication PMC4132184:
# By UniProt entry, the sequences of proteins in these tests, tags left out. Where a name states a change or a piece, a line headed by the entry shows the natural chain unless it says otherwise.
# UniProt Q9GRZ1: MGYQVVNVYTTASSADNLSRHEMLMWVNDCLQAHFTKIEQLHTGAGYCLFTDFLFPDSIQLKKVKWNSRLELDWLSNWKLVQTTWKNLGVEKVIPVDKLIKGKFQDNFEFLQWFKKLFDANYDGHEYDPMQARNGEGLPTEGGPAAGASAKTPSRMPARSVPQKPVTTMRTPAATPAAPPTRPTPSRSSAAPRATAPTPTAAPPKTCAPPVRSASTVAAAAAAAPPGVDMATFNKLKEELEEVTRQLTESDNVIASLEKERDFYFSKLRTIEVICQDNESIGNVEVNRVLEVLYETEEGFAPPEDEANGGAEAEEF
# UniProt Q23463: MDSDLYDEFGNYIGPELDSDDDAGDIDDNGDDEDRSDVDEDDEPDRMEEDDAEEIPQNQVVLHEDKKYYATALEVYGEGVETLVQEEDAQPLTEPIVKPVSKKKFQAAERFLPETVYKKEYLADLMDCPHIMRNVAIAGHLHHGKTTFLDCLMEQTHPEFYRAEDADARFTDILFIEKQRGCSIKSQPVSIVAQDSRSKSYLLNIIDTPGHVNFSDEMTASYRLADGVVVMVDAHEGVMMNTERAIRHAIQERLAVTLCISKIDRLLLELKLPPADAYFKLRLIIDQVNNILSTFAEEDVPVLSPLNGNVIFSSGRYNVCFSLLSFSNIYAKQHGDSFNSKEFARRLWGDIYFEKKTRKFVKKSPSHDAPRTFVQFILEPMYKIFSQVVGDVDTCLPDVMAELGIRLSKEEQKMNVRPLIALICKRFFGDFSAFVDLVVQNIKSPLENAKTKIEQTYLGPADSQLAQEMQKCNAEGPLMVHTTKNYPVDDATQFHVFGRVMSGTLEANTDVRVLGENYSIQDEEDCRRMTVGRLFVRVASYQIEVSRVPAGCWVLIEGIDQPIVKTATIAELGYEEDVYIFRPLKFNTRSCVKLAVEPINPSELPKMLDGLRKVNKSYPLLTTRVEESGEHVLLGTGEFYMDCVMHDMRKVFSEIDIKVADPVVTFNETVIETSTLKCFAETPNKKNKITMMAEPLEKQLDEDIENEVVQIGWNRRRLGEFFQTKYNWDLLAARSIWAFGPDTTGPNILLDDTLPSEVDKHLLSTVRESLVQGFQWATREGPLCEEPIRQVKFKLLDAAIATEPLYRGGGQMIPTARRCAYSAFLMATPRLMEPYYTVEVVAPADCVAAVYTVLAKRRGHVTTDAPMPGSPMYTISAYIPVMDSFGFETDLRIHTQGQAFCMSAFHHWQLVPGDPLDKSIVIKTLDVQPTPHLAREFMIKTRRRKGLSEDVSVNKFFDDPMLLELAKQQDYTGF
# UniProt Q22836: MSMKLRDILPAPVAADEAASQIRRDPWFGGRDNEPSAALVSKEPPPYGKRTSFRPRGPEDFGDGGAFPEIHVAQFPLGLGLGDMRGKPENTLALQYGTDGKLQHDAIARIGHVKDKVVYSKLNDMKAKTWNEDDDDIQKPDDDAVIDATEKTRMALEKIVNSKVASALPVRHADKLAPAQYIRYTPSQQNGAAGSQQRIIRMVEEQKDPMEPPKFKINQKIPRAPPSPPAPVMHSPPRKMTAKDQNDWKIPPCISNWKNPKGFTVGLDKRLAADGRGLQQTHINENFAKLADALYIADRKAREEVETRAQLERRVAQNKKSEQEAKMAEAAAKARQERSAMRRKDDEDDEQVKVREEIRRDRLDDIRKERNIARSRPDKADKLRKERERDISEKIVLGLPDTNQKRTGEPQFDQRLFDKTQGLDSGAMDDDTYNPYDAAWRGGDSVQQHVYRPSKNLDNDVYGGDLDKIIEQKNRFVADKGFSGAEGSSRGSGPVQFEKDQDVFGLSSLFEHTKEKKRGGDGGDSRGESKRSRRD
# UniProt O44729: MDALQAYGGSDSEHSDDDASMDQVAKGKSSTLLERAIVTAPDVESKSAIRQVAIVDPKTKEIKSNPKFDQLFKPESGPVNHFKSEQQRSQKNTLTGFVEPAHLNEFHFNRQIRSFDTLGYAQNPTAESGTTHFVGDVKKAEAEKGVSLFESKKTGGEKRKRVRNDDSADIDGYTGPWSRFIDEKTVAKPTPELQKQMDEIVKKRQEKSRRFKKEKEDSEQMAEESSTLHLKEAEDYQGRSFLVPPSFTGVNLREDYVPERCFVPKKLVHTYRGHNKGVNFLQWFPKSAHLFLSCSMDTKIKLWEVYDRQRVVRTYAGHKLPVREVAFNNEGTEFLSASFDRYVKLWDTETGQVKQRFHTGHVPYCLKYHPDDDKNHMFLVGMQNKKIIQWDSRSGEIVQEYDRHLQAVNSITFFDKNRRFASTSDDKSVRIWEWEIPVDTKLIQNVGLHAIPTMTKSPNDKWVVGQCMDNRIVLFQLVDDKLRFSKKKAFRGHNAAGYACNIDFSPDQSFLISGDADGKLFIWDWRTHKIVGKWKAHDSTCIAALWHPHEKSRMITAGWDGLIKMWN
# T1: FLAG::HA::CACN-1A (C. elegans) (UniProt G5EG14)
# T1 sequence: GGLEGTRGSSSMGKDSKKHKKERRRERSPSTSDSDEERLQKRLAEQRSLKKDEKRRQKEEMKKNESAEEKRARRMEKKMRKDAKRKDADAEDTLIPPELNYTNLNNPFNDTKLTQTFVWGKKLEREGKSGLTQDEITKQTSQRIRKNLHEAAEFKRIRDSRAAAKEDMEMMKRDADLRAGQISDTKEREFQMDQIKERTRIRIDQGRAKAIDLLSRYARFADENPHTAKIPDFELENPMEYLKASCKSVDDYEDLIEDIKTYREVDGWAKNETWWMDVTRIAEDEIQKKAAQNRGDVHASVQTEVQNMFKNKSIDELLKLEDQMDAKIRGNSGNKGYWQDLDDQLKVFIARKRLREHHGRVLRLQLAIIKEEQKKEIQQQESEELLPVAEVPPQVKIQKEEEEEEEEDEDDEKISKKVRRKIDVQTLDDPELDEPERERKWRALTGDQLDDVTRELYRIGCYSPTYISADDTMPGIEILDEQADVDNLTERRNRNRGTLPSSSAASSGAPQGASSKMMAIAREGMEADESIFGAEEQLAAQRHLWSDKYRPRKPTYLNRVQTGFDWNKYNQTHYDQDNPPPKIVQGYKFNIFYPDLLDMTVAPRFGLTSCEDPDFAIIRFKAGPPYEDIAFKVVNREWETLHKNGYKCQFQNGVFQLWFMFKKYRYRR
# Target: T1, FLAG::HA::CACN-1A (C. elegans)
# Assay: affinity purification with mass spectrometry; tandem affinity purification: lysate of heat-shocked mixed-stage C. elegans expressing FLAG::HA::CACN-1A bound to anti-FLAG agarose, eluted with FLAG peptide, then anti-HA agarose, eluted with HA peptide; lysis buffer 50 mM Tris pH 7.5, 150 mM NaCl, 1 mM EDTA, 0.5% NP-40, 10% glycerol; N2 lysate as negative control; two independent biological replicates; LC-MS/MS of the eluates
row,Molecule,binding
1,EBP-1 (from UniProt Q9GRZ1),binds
2,ubl-1,binds
3,eftu-2 (from UniProt Q23463),binds
4,SKP-1 (from UniProt Q22836),binds
5,"mog-2 (protein, UniProt Q9BLB6 1-253) MVRLTTELFAERPQFVNSVNMREINLRGQKIPVIENMGVTRDQFDVIDLTDNDIRKLDNFPTFSRLNTLYLHNNRINYIAPDIATKLPNLKTLALTNNNICELGDIEPLAECKKLEYVTFIGNPITHKDNYRMYMIYKLPTVRVIDFNRVRLTEREAAKKMFKGKSGKKARDAIQKSVHTEDPSEIEPNENSSGGGARLTDEDREKIKEAIKNAKSLSEVNYLQSILASGKVPEKGWNRQMDQNGADGEAMES",binds
6,"MOG-5 (protein, UniProt Q09530 1-1200) MDQLEHLSLVSKVLSEVENHFGVVEKDVAEFVIHLAQENPTFDKLKKALDSQGLGDQFDDSLTATILRIVQSMTAVKKKNKKGGDSKEDIKDSHKITLISDAKEEIKARLPALAMANTAKEKEDNEDDLMAQLEKMEGRYESEKRLQKESDSKRNRSRSRSRSRDRKRRRSRSGDRDRRRRSRSREDRRDRDRRDRDRDRDRGRGDRRGDDRQRDRRDRRDDGGARKSEVAEIGKIYDGRVNSIQSFGAFITLEGFRQKQEGLVHISQIRNERVQTVADVLKRGENVKVKVNKIENGKISLSMKEVDQNSGEDLNPRETDLNPDAIGVRPRTPPASTSSWMNPEASGVGQGPSTSIGGGKARVRISTPERWELRQMQGAGVLTATDMPDFDEEMGVLRNYDDESDGEDIEIELVEDEPDFLRGYGKGGAEIEPVKVVKNPDGSLAQAALMQGALSKERKETKIQAQRERDMDTQKGFSSNARILDPMSGNQSTAWSADESKDRNNKMKEMPEWLKHVTAGGKATYGRRTNLSMVEQRESLPIFALKKNLMEAMIDNQILVVVGETGSGKTTQMTQYAIEAGLGRRGKIGCTQPRRVAAMSVAKRVAEEYGCKLGTDVGYTIRFEDCTSQDTIIKYMTDGMLLRECLIDPDLSGYSLIMLDEAHERTIHTDVLFGLLKAAARKRPELKLIITSATLDSVKFSEYFLEAPIFTIPGRTFPVEILYTREPESDYLEAAHITVMQIHLTEPPGDVLVFLTGQEEIDTSCEVLYERMKSMGPDVPELIILPVYGALPSEMQTRIFDPAPAGKRKVVIATNIAETSLTIDGIFYVVDPGFVKQKIYNPKSGMDSLVVTPISQAAAKQRSGRAGRTGPGKCYRLYTERAFRDEMLPTPVPEIQRTNLASTLLQLKAMGINNLIDFDFMDAPPLDSMITALNTLHTLSALDGDGLLTKLGRRMAEFPLEPSLSKLLIMSVDLGCSEEVLTIVAMLNVQNIFYRPKEKQDHADQKKAKFHQPEGDHLTLLAVYNSWKNHHFSQPWCFENFIQVRSMKRAQDIRKQLLGIMDRHKLLMVSCGRDVSRVQKAICSGFFRNAAKRDPQEGYRTLTDGQNVYIHPSSACFQQQPEWVVYHELVMTTKEYMREVTAIDPKWLVEFAPSFFKIGDSTKLSTFKRNQKIDPLFDKYADANAWRITRVKKRIYNPNK",binds
7,"snr-6 (protein, UniProt Q9XTU6 1-90) MSTRKLNKVMVQPVNLIFRYLQNRTRVQIWLYEDVTHRLEGYIIGFDEFMNVVFDEAEEVNMKTKGRNKIGRILLKGDNITLIHAAQQEA",binds

# Now from value to molecule:
row,binding,Molecule
1,binds,EMB-4
2,binds,PRP-17 (from UniProt O44729)
3,binds,"rsr-2 (protein, UniProt Q9U213 1-425) MYNGIGLQTARGSGTNGYVQSNLSHLMQARRKIEYNGEDDLRKMEAELNRKPNEEIMDHNRKRQIEVKCTEFEMLLEDKGLDDEDIERKVGEYRKNLLKQLESGELNVDEELSTKESHARRRAAANNRDKMRNALGLGEDYVPGSSMAKMNKSDVVGAAMESELPQKDDKEKLLETLRLHRKSKKKQESSSSSSSSSSSSESSSEDEKHRKDRKKKEKKQKLKEMEKRREKLRQKERELLAVSDKVKKEEPAESSDEEDSRKDQRKPREDRRRSVERQDQREDRRDRRRSPEDPRERRRSPEDRTVRRRSPERRRQQRSPSVERRKSPQRRDERRRRHDSSENERRSTATASKKSRMDELEVKQEPPSDSEDYIAKTNLAPIRVEKSAEKVEKSRKSSSESSSGSSDSDSSSDSSSSSDSSSDSE"
4,binds,"C07A9.2 (protein, UniProt P34313 1-147) MSLATKLRRVRKSPPEGWDLIEPTLEQFEAKMREAETEPHEGKRKTEINWPIFRIHHQRSRYVYDMYYKKAEISRELYEFCLTAKFADAALIAKWKKQGYENLCCVKCVNTRDSNFGTACICRVPKSKLDAERVIECVHCGCHGCSG"
5,binds,"PRP-19 (protein, UniProt Q10051 1-492) MSFVCGISGELTEDPVVSQVSGHIFDRRLIVKFIAENGTDPISHGELSEDQLVSLKSGGTGSAPRNVSGTSIPSLLKMLQDEWDTVMLNSFSLRQQLQIARQELSHSLYQHDAACRVISRLSKELTAAREALSTLKPHTSAKVDDDVSIDESEDQQGLSEAILAKLEEKSKSLTAERKQRGKNLPEGLAKTEELAELKQTASHTGIHSTGTPGITALDIKGNLSLTGGIDKTVVLYDYEKEQVMQTFKGHNKKINAVVLHPDNITAISASADSHIRVWSATDSSSKAIIDVHQAPVTDISLNASGDYILSASDDSYWAFSDIRSGKSLCKVSVEPGSQIAVHSIEFHPDGLIFGTGAADAVVKIWDLKNQTVAAAFPGHTAAVRSIAFSENGYYLATGSEDGEVKLWDLRKLKNLKTFANEEKQPINSLSFDMTGTFLGIGGQKVQVLHVKSWSEVVSLSDHSGPVTGVRFGENARSLVTCSLDKSLRVFSF"

# These are yes or no findings as the source states them, for the method shown. In cells and extracts the contact can be indirect. A yes stands for co-enrichment or nearness to the bait. Other partners may have been found. Sequences can lack the tags named with a protein.
